{"sequences": {"note": "Chains of the proteins cited; added tags and fusions are not shown. Residues count along the entry.", "UniProt Q00987, 1-125 limits assumed": "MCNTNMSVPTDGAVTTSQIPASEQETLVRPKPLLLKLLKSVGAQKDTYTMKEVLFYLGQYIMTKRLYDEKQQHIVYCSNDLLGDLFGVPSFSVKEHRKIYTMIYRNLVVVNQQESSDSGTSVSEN", "UniProt O15151, 1-125 limits assumed": "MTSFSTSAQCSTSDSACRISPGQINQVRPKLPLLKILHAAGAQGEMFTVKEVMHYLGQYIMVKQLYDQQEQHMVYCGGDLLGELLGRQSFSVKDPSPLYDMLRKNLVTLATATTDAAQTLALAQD"}, "source": "patent US20200369728A1", "about": "“PEPTIDOMIMETIC MACROCYCLES AND USES THEREOF” (Aileron Therapeutics, Inc., priority 2015, published 2020)", "key": {"MDM2": {"biological_target": "MDM2 (Homo sapiens, UniProt Q00987)", "experiment": "Competitive fluorescence polarization assay for MDM2", "type": "binding", "details": "for pKi: read-out: Ki (MDM2)"}, "SJSA-1": {"system": "SJSA-1", "experiment": "Cell viability assay (MTT), SJSA-1", "details": "read-out: SJSA-1 EC50 (72 h)"}, "MDMX": {"biological_target": "MDMX (Homo sapiens, UniProt O15151)", "experiment": "Competitive fluorescence polarization assay for MDMX", "type": "binding"}, "RKO": {"system": "RKO", "experiment": "Cell viability assay (MTT), RKO", "details": "read-out: RKO EC50 (72 h)"}, "RKO-E6": {"system": "RKO-E6", "experiment": "Cell viability assay (MTT), RKO-E6", "details": "read-out: RKO-E6 EC50 (72 h), RKO-E6, 72 h"}, "SW-480": {"system": "SW-480", "experiment": "Cell viability assay (MTT), SW-480", "details": "read-out: SW480 EC50 (6 days), SW480, 6 days"}}, "note": "pEC50, pIC50, pKi: −log10 of the molar value. Structures were worked out from names or drawings and are uncertain.", "data": [{"smiles": "CC(=O)N[C@@H](CC(C)C)C(=O)N(C)CC(=O)N[C@@H](Cc1ccccc1)C(=O)N[C@]1(C)CCCCCCC=CCCC[C@@](C)(C(=O)N[C@@H](CO)C(N)=O)NC(=O)[C@H](CC(C)C)NC(=O)[C@H](CCC(N)=O)NC(=O)[C@H](C)NC(=O)[C@H](Cc2c[nH]c3ccccc23)NC(=O)[C@H](Cc2ccc(O)cc2)NC(=O)[C@H](C)NC1=O", "values": [{"measurement": "pKi", "setting": "MDM2", "result": "7.00 to 8.00"}, {"measurement": "pEC50", "setting": "SJSA-1", "result": "> 5.30"}]}, {"smiles": "CC(=O)N[C@@H](CC(C)C)C(=O)N[C@H](C(=O)N[C@H](C(=O)N[C@]1(C)CCCCCCC=CCCC[C@@](C)(C(=O)N[C@@H](CO)C(N)=O)NC(=O)[C@H](CC(C)C)NC(=O)[C@H](CCC(N)=O)NC(=O)[C@H](C)NC(=O)[C@H](Cc2c[nH]c3ccccc23)NC(=O)[C@H](Cc2ccc(O)cc2)NC(=O)[C@H](Cc2cnc[nH]2)NC1=O)C(c1ccccc1)c1ccccc1)[C@@H](C)O", "values": [{"measurement": "pIC50", "setting": "MDM2; read-out: IC50 (MDM2)", "result": "7.00 to 8.00"}, {"measurement": "pKi", "setting": "MDM2", "result": "> 8.00"}, {"measurement": "pIC50", "setting": "MDMX; read-out: IC50 (MDMX)", "result": "7.00 to 8.00"}, {"measurement": "pKi", "setting": "MDMX; read-out: Ki (MDMX)", "result": "7.00 to 8.00"}, {"measurement": "pEC50", "setting": "RKO", "result": "> 5.30"}, {"measurement": "pEC50", "setting": "RKO-E6", "result": "4.52 to 4.82"}, {"measurement": "pEC50", "setting": "SW-480", "result": "> 5.30"}]}, {"smiles": "CC(=O)N[C@@H](CCC(N)=O)C(=O)N[C@@H](CO)C(=O)N[C@@H](CCC(N)=O)C(=O)N[C@@H](CCC(N)=O)C(=O)N[C@H](C(=O)N[C@@H](Cc1ccccc1)C(=O)N[C@]1(C)CCCCCCC=CCCC[C@@](C)(C(=O)N[C@@H](CCC(N)=O)C(=O)N[C@@H](CC(N)=O)C(N)=O)NC(=O)[C@H](CC(C)C)NC(=O)[C@H](CC(C)C)NC(=O)[C@H](CCCNC(=N)N)NC(=O)[C@H](Cc2c[nH]c3ccccc23)NC(=O)[C@H](CC(C)C)NC(=O)[C@H](C)NC1=O)[C@@H](C)O", "values": [{"measurement": "pEC50", "setting": "SJSA-1", "result": "4.82 to 5.30"}]}, {"smiles": "CC(=O)N[C@@H](C)C(=O)N[C@@H](CO)C(=O)N[C@@H](CCC(N)=O)C(=O)N[C@@H](CCC(N)=O)C(=O)N[C@H](C(=O)N[C@@H](Cc1ccccc1)C(=O)N[C@]1(C)CCCCCCC=CCCC[C@@](C)(C(=O)N[C@@H](CCC(N)=O)C(=O)N[C@@H](CC(N)=O)C(N)=O)NC(=O)[C@H](CC(C)C)NC(=O)[C@H](CC(C)C)NC(=O)[C@H](CCCNC(=N)N)NC(=O)[C@H](Cc2c[nH]c3ccccc23)NC(=O)[C@H](CC(C)C)NC(=O)[C@H](CC(N)=O)NC1=O)[C@@H](C)O", "values": [{"measurement": "pEC50", "setting": "SJSA-1", "result": "4.52 to 4.82"}]}]}
